Reference: US12491217B2, “Compositions and methods for promoting healthy neural development in an unborn baby” (The Regents of the University of California, priority 2019, dated 2025)

How the values were obtained:
[1] = Metabolomics of maternal serum at E14.5; format: in vivo, C57Bl/6J mice
[2] = Metabolomics of fetal brain at E14.5; format: in vivo, C57Bl/6J mice
[3] = metabolite level in E14.5 fetal brain, ANOVA contrast ABX/SPF
[4] = metabolite level in E14.5 fetal brain, ANOVA contrast GF/ABX
[5] = metabolite level in E14.5 fetal brain, ANOVA contrast GF/SPF
[6] = metabolite level in E14.5 fetal brain, ANOVA contrast GF/Sp
[7] = metabolite level in E14.5 fetal brain, ANOVA contrast Sp/ABX
[8] = metabolite level in E14.5 fetal brain, ANOVA contrast Sp/SPF

CC(C(=O)O)c1ccc(O)cc1 (stereo not drawn) [2-(4-hydroxyphenyl)propionate]
fold of change ABX/SPF [1]: 0.06
fold of change GF/ABX [1]: 1.00
fold of change GF/SPF [1]: 0.06
fold of change GF/Sp [1]: 0.06
fold of change Sp/ABX [1]: 16.71
fold of change Sp/SPF [1]: 0.99

O=C(O)CCc1cccc(O)c1.O=S(=O)(O)O [3-(3-hydroxyphenyl)propionate sulfate]
fold of change ABX/SPF [1]: 0.01
fold of change GF/ABX [1]: 1.00
fold of change GF/SPF [1]: 0.01
fold of change GF/Sp [1]: 0.14
fold of change Sp/ABX [1]: 7.24
fold of change Sp/SPF [1]: 0.07

C[C@H](CCC(=O)O)[C@H]1CC[C@H]2[C@@H]3C(=O)C[C@@H]4C[C@H](O)CC[C@]4(C)[C@H]3C[C@H](O)[C@]12C [7-ketodeoxycholate]
fold of change ABX/SPF [1]: 0.00
fold of change GF/ABX [1]: 1.00
fold of change GF/SPF [1]: 0.00
fold of change GF/Sp [1]: 0.00
fold of change Sp/ABX [1]: 717.10
fold of change Sp/SPF [1]: 3.31

C[C@H](CCC(=O)O)[C@H]1CC[C@H]2[C@@H]3[C@H](O)[C@@H](O)[C@@H]4C[C@H](O)CC[C@]4(C)[C@H]3CC[C@]12C [alpha-muricholate]
fold of change ABX/SPF [1]: 0.04
fold of change GF/ABX [1]: 1.00
fold of change GF/SPF [1]: 0.04
fold of change GF/Sp [1]: 0.00
fold of change Sp/ABX [1]: 221.52
fold of change Sp/SPF [1]: 8.04

C[N+]1(C)CCCC[C@H]1C(=O)[O-] [compound 4108]
fold of change ABX/SPF [2, 3]: 0.38
fold of change GF/ABX [2, 4]: 1.24
fold of change GF/SPF [2, 5]: 0.46
fold of change GF/Sp [2, 6]: 0.65
fold of change Sp/ABX [2, 7]: 1.91
fold of change Sp/SPF [2, 8]: 0.72

O=C(O)[C@@H](O)[C@@H](O)[C@H](O)[C@H](O)CO [compound 4131]
fold of change ABX/SPF [2, 3]: 0.94
fold of change GF/ABX [2, 4]: 1.07
fold of change GF/SPF [2, 5]: 1.00
fold of change GF/Sp [2, 6]: 1.14
fold of change Sp/ABX [2, 7]: 0.93
fold of change Sp/SPF [2, 8]: 0.88

O=C(CO)NC1C(O)CC(O)(C(=O)O)OC1C(O)C(O)CO (stereo not drawn) [compound 4144]
fold of change ABX/SPF [2, 3]: 0.75
fold of change GF/ABX [2, 4]: 1.12
fold of change GF/SPF [2, 5]: 0.84
fold of change GF/Sp [2, 6]: 0.88
fold of change Sp/ABX [2, 7]: 1.26
fold of change Sp/SPF [2, 8]: 0.95

C[N+]1(C)CCC[C@H]1C(=O)[O-] [compound 4221]
fold of change ABX/SPF [2, 3]: 0.44
fold of change GF/ABX [2, 4]: 1.28
fold of change GF/SPF [2, 5]: 0.57
fold of change GF/Sp [2, 6]: 0.73
fold of change Sp/ABX [2, 7]: 1.75
fold of change Sp/SPF [2, 8]: 0.77

N[C@@H](CCCCn1c(C=O)ccc1CO)C(=O)O [compound 4274]
fold of change ABX/SPF [2, 3]: 0.46
fold of change GF/ABX [2, 4]: 0.87
fold of change GF/SPF [2, 5]: 0.40
fold of change GF/Sp [2, 6]: 0.41
fold of change Sp/ABX [2, 7]: 2.14
fold of change Sp/SPF [2, 8]: 0.98

O=C(O)C(O)C(=O)O [compound 4363]
fold of change ABX/SPF [2, 3]: 0.56
fold of change GF/ABX [2, 4]: 1.39
fold of change GF/SPF [2, 5]: 0.78
fold of change GF/Sp [2, 6]: 0.76
fold of change Sp/ABX [2, 7]: 1.84
fold of change Sp/SPF [2, 8]: 1.03

O=C(O)c1ccccc1O [compound 4756]
fold of change ABX/SPF [2, 3]: 0.71
fold of change GF/ABX [2, 4]: 1.04
fold of change GF/SPF [2, 5]: 0.74
fold of change GF/Sp [2, 6]: 0.80
fold of change Sp/ABX [2, 7]: 1.29
fold of change Sp/SPF [2, 8]: 0.92

O=S(=O)(O)O [compound 4832]
fold of change ABX/SPF [2, 3]: 1.06
fold of change GF/ABX [2, 4]: 0.91
fold of change GF/SPF [2, 5]: 0.96
fold of change GF/Sp [2, 6]: 1.02
fold of change Sp/ABX [2, 7]: 0.90
fold of change Sp/SPF [2, 8]: 0.95

N[C@@H](Cc1ccc(OS(=O)(=O)O)cc1)C(=O)O [compound 4835]
fold of change ABX/SPF [2, 3]: 0.47
fold of change GF/ABX [2, 4]: 1.22
fold of change GF/SPF [2, 5]: 0.58
fold of change GF/Sp [2, 6]: 0.61
fold of change Sp/ABX [2, 7]: 2.01
fold of change Sp/SPF [2, 8]: 0.95

CC1=NCCC(C(=O)O)N1 (stereo not drawn) [compound 4899]
fold of change ABX/SPF [2, 3]: 0.81
fold of change GF/ABX [2, 4]: 0.77
fold of change GF/SPF [2, 5]: 0.62
fold of change GF/Sp [2, 6]: 0.37
fold of change Sp/ABX [2, 7]: 2.09
fold of change Sp/SPF [2, 8]: 1.68

O=S1(=O)OC(c2ccc(O)cc2)(c2ccc(O)cc2)c2ccccc21 [compound 4926]
fold of change ABX/SPF [2, 3]: 0.91
fold of change GF/ABX [2, 4]: 20.85
fold of change GF/SPF [2, 5]: 18.88
fold of change GF/Sp [2, 6]: 20.85
fold of change Sp/ABX [2, 7]: 1.00
fold of change Sp/SPF [2, 8]: 0.91

O=S(=O)(O)C(F)(F)C(F)(F)C(F)(F)C(F)(F)C(F)(F)C(F)(F)C(F)(F)C(F)(F)F [compound 4930]
fold of change ABX/SPF [2, 3]: 1.16
fold of change GF/ABX [2, 4]: 1.07
fold of change GF/SPF [2, 5]: 1.25
fold of change GF/Sp [2, 6]: 0.54
fold of change Sp/ABX [2, 7]: 1.99
fold of change Sp/SPF [2, 8]: 2.31

O=C(O)C1CSCN1 (stereo not drawn) [compound 4971]
fold of change ABX/SPF [2, 3]: 1.08
fold of change GF/ABX [2, 4]: 0.52
fold of change GF/SPF [2, 5]: 0.56
fold of change GF/Sp [2, 6]: 1.19
fold of change Sp/ABX [2, 7]: 0.44
fold of change Sp/SPF [2, 8]: 0.47

O=C(O)CCc1c[nH]c2ccccc12 [indolepropionate]
fold of change ABX/SPF [1]: 0.01
fold of change GF/ABX [1]: 0.24
fold of change GF/SPF [1]: 0.00
fold of change GF/Sp [1]: 0.00
fold of change Sp/ABX [1]: 54.72
fold of change Sp/SPF [1]: 0.70

O=C(O)CNC(=O)Cc1ccccc1 [phenylacetylglycine]
fold of change ABX/SPF ([2]; fetal brain, E14.5): 0.45
fold of change GF/ABX ([2]; fetal brain, E14.5): 1.00
fold of change GF/SPF ([2]; fetal brain, E14.5): 0.45
fold of change GF/Sp ([2]; fetal brain, E14.5): 0.56
fold of change Sp/ABX ([2]; fetal brain, E14.5): 1.79
fold of change Sp/SPF ([2]; fetal brain, E14.5): 0.80

O=C(O)CNC(=O)CCc1ccccc1 [phenylpropionylglycine]
fold of change ABX/SPF [1]: 0.01
fold of change GF/ABX [1]: 1.00
fold of change GF/SPF [1]: 0.01
fold of change GF/Sp [1]: 0.01
fold of change Sp/ABX [1]: 72.57
fold of change Sp/SPF [1]: 0.60

C[C@H](CCC(=O)NCCS(=O)(=O)O)[C@H]1CC[C@H]2[C@@H]3CC[C@@H]4C[C@H](O)CC[C@]4(C)[C@H]3C[C@H](O)[C@]12C [taurodeoxycholate]
fold of change ABX/SPF [1]: 0.00
fold of change GF/ABX [1]: 1.00
fold of change GF/SPF [1]: 0.00
fold of change GF/Sp [1]: 0.05
fold of change Sp/ABX [1]: 21.07
fold of change Sp/SPF [1]: 0.07

C[C@H](CCC(=O)O)[C@H]1CC[C@H]2[C@@H]3[C@@H](O)C[C@@H]4C[C@H](O)CC[C@]4(C)[C@H]3CC[C@]12C [ursodeoxycholate]
fold of change ABX/SPF [1]: 0.02
fold of change GF/ABX [1]: 1.00
fold of change GF/SPF [1]: 0.02
fold of change GF/Sp [1]: 0.00
fold of change Sp/ABX [1]: 201.13
fold of change Sp/SPF [1]: 3.73
